The values below come from publication PMC5873885.

By UniProt entry, the sequences of proteins in these tests, tags left out.
UniProt Q969H0: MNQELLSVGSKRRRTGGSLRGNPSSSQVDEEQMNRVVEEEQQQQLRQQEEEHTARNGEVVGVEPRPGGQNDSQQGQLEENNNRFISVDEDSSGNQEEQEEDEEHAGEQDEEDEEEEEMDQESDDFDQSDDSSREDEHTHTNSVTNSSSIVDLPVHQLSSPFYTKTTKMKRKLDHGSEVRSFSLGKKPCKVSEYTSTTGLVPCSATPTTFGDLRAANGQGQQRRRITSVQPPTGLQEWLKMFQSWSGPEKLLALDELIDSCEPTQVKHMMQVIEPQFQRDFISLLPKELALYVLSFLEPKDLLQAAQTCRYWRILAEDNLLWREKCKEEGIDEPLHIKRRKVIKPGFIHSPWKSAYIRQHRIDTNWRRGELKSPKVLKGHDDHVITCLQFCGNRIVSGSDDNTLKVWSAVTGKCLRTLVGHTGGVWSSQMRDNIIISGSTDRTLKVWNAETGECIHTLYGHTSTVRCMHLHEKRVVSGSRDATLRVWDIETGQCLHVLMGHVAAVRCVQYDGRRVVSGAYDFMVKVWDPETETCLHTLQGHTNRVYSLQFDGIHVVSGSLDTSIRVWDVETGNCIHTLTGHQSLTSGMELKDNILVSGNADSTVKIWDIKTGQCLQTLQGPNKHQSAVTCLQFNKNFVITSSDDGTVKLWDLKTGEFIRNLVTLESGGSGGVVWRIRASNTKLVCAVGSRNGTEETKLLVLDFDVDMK
UniProt Q93008: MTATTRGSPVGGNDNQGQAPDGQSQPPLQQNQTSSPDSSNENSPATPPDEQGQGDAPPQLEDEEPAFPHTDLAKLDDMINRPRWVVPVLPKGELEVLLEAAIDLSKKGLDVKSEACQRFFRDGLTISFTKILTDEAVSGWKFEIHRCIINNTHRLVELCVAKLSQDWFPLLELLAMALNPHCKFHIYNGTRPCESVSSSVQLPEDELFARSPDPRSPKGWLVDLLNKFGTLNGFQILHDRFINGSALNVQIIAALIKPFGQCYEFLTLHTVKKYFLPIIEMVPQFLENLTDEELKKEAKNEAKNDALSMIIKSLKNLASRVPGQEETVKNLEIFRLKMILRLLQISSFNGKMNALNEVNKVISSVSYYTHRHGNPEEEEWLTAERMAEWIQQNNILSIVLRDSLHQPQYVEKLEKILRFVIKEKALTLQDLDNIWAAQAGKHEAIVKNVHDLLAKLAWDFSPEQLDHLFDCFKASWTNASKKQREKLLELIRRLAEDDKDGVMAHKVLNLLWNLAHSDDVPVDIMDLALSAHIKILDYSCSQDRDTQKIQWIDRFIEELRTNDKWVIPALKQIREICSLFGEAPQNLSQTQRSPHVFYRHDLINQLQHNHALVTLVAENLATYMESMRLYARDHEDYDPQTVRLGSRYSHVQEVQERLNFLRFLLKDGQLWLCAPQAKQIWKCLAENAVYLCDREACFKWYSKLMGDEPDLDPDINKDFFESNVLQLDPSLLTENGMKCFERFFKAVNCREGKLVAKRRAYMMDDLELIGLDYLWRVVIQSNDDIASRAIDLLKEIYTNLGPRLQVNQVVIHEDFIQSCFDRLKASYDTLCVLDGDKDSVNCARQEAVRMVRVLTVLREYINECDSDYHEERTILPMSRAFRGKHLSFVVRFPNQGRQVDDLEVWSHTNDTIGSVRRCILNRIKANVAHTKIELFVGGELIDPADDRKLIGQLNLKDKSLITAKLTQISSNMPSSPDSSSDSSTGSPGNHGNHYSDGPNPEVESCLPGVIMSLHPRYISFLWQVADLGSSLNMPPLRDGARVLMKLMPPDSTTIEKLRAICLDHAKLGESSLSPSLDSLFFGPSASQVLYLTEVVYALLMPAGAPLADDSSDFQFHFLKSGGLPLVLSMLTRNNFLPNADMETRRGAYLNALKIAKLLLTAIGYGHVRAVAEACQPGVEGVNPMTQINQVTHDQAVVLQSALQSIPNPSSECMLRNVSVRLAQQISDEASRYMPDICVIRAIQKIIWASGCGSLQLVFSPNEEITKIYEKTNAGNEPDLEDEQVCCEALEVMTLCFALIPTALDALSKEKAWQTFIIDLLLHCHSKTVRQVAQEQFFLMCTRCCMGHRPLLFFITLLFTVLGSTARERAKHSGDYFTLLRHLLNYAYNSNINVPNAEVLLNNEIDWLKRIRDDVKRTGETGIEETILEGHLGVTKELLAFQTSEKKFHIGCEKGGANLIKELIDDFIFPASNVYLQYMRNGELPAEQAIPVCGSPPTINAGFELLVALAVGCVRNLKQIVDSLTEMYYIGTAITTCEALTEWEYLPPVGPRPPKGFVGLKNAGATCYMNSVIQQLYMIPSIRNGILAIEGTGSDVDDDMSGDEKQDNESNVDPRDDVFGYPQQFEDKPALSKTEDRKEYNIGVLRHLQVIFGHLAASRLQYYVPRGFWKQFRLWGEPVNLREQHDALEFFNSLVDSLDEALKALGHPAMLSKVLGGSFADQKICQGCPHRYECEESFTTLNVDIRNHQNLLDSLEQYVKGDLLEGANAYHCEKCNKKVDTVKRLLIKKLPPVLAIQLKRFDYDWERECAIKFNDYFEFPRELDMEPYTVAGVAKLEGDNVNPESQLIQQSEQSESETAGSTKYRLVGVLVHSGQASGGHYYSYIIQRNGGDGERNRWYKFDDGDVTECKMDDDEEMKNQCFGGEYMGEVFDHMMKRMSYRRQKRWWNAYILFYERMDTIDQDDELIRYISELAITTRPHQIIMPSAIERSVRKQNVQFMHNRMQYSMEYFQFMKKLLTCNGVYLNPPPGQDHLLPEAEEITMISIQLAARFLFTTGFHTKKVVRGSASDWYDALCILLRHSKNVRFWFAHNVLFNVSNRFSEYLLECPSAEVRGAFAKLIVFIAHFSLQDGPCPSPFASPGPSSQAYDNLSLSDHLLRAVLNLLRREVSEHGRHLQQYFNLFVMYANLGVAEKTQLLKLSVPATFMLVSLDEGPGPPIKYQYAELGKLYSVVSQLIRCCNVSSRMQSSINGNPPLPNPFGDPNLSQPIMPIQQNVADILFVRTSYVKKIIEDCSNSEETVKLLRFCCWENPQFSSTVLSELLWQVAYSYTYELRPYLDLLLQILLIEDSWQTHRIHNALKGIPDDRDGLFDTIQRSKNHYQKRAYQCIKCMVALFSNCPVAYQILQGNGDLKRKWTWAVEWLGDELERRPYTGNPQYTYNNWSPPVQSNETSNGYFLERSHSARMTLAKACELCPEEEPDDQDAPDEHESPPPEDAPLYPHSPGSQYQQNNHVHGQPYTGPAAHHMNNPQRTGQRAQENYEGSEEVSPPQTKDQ
UniProt P05412: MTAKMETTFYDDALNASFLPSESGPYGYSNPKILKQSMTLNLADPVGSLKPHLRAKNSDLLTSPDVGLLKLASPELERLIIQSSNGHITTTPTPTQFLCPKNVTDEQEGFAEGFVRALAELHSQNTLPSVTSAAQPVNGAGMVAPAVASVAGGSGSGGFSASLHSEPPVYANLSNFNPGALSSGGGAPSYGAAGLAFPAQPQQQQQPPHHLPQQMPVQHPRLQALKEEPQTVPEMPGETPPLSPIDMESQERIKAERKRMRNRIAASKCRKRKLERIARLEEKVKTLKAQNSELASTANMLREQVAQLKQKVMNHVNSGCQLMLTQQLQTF

These are yes or no findings as the source states them, for the method shown. Binding seen in cells or lysates may run through a third protein. Here binding means that the protein was enriched with, or labelled near, the bait; the list need not be complete.

For the test, the target named is FBW7 (endogenous, HEK293; precipitated or detected with an FBW7α-specific antibody) (human (endogenous in HEK293)) (UniProt Q969H0). Put plainly: affinity purification with mass spectrometry; endogenous FBW7α immunoprecipitated (5 μg/ml FBW7α antibody; rabbit IgG control) from HEK293 cells treated with MG132 for 6 hours, lysed in 1x Cell Lysis Buffer; complexes washed 5 times; eluates analysed by MS.

With “USP9X (endogenous, HEK293) (from UniProt Q93008 1-2554) (enzyme)”, the binding result is on record as “binds”.

“c-JUN (endogenous, HEK293) (from UniProt P05412 1-331)”: the binding result is “binds”.
